Measured values: paper PMC10156788, “Molecular architecture of the Gαi-bound TRPC5 ion channel” (Nature Communications, 2023)
Results are given in words; binding and its absence hold for the method and conditions named. For some of these results: In cells and extracts the contact can be indirect. Some binding calls cover weakened binding; strength is not graded here.

By UniProt entry, the sequences of proteins in these tests, tags left out. Where a name states a change or a piece, a line headed by the entry shows the natural chain unless it says otherwise. Chains listed by the source or under a name are the forms on record and can include a tag or linker. Residues count along the entry.
human TRPC5 (amino acids 1 to 765, TRPC5EM) in lipid nanodiscs, EGFP and Twin-StrepII-tag removed (Q9UL62, residues 1-765): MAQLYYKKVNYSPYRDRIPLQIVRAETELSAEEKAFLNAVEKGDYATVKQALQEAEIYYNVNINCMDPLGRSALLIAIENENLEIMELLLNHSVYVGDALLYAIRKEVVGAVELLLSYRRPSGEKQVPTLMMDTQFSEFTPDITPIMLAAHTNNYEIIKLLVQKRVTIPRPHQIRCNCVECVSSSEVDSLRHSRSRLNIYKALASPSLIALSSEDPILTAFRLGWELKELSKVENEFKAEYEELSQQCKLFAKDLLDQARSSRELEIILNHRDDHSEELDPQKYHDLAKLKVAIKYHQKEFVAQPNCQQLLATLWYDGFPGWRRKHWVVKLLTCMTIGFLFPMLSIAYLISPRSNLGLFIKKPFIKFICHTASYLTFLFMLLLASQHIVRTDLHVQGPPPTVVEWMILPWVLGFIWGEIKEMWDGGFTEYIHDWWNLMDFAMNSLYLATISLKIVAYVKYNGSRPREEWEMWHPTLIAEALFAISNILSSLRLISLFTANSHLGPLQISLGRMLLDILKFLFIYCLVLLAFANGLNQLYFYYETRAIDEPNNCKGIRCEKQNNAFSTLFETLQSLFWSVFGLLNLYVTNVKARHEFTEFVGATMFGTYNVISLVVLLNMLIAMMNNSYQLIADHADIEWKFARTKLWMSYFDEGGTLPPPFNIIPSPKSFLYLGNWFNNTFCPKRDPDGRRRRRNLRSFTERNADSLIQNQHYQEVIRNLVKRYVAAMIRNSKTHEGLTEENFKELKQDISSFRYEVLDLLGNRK
ECFP-fused human TRPC5EM^IYY/AAA (TRPC5EM^IYY/AAA-ECFP) (Q9UL62, form named): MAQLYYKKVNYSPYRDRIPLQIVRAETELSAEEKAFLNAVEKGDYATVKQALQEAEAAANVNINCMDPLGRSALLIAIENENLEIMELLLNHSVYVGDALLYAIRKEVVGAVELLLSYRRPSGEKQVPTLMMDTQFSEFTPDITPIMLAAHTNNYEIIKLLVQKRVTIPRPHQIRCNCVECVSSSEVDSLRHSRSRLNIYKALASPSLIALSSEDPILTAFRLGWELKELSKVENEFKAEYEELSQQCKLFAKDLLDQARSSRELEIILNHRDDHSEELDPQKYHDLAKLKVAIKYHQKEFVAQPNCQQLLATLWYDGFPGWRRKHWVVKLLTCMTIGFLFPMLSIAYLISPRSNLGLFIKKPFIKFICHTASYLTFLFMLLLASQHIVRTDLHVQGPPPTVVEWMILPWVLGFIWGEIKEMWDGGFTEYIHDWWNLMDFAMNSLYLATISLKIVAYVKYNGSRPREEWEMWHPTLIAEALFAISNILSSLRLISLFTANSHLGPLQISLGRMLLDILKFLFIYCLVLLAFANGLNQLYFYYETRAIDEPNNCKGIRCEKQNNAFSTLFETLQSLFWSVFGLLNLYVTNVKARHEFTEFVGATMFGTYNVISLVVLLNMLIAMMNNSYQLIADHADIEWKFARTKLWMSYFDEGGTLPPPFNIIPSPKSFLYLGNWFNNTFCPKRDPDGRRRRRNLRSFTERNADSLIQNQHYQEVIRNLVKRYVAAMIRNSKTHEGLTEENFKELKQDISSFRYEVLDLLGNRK

B1: N-myristoylated human Gαi3^Q204L, GTP-activated (natural protein)
chain: TLSAEDKAAVERSKMIDRNLREDGEKAAKEVKLLLLGAGESGKSTIVKQMKIIHEDGYSEDECKQYKVVVYSNTIQSIIAIIRAMGRLKIDFGEAARADDARQLFVLAGSAEEGVMTPELAGVIKRLWRDGGVQACFSRSREYQLNDSASYYLNDLDRISQSNYIPTQQDVLRTRVKTTGIVETHFTFKDLYFKMFDVGGLRSERKKWIHCFEGVTAIIFCVALSDYDLVLAEDEEMNRMHESMKLFDSICNNKWFTETSIILFLNKKDLFEEKIKRSPLTICYPEYTGSNTYEEAAAYIQCQFEDLNRRKDTKEIYTHFTCATDTKNVQFVFDAVTDVIIKNNLKE
modifications: myristoylation at the N-terminal glycine
notes: hexa-histidine tag inserted between M119 and T120; Incubated with 1 mM GTP for 1 h at 30 °C before use; The His tag is internal and no cleavage is described; Myristoylation of the N-terminal glycine implies loss of the first methionine; also called myristoylated Gαi3^Q204L

Assays:
[1] = molecular target: ECFP-fused human TRPC5EM (TRPC5EM-ECFP) (human) (UniProt Q9UL62); assay: FRET or BRET; three-cube FRET (effective FRET efficiency, EEFF) in live HEK293T cells co-expressing ECFP-tagged TRPC5 and EYFP-tagged Gαi3^Q204L
[2] = molecular target: ECFP-fused human TRPC5EM^IYY/AAA (TRPC5EM^IYY/AAA-ECFP) (human) (UniProt Q9UL62); assay: as above
[3] = molecular target: human TRPC5 (amino acids 1 to 765, TRPC5EM) in lipid nanodiscs, EGFP and Twin-StrepII-tag removed (human) (UniProt Q9UL62); assay: SEC; Superose 6 10/300 GL in Buffer A with 5 μM GTP after overnight incubation at 4 °C of Gαi3 with nanodisc-reconstituted TRPC5 (6:1) and HRV-3C cleavage; peak fractions analysed by SDS-PAGE; both purified
[4] = molecular target: human TRPC5 (amino acids 1 to 765, TRPC5EM) in lipid nanodiscs, EGFP and Twin-StrepII-tag removed (human) (UniProt Q9UL62); assay: cryo-EM structure; TRPC5EM in MSP2N2/soybean lipid nanodiscs, alone or mixed with GTP-activated N-myristoylated Gαi3^Q204L at Gα:TRPC5 monomer = 6:1; Buffer A (50 mM Tris-HCl pH 8.0, 150 mM NaCl, 1 mM DTT) with 5 μM GTP; 2.5 mM CaCl2 added before vitrification; no PIP2; both purified

| binding [1] | binding [2] | binding [3] | binding [4] | Molecule |
| --- | --- | --- | --- | --- |
| binds | no binding |  |  | EYFP-fused human Gαi3^Q204L (Gαi3-EYFP-Q204L) (from UniProt P08754 1-354) |
|  |  | binds | binds | B1 |
